This passage reports survivor count and T/C results from PubChem BioAssay AID200 (DTP/NCI, 2004).

The subject of this assay is B6C3F1 mice, B16 melanoma ip, median survival T/C. The experiment in a line: NCI In Vivo Anticancer Drug Screen. Data for tumor model B16 Melanoma (intraperitoneal) in B6C3F1 mice. Particulars: T/C endpoint: median survival time, higher T/C = longer survival. How it is done: The antitumor activity of compounds was measured in mice bearing transplantable tumors. Survival or tumor size were measured and the results are expressed as the measurement made in the treated group (T) divided by the measurement made in the vehicle treated control group (C). The tumor model used in this assay is B16 Melanoma (intraperitoneal) in B6C3F1 mice

Where [1] appears, read: dose: 200.0 mg/kg/injection, schedule: Q01DX009 (ip), vehicle: saline with Tween-80.
Where [2] appears, read: dose: 160.0 mg/kg/injection, schedule: Q01DX009 (ip), vehicle: saline with Tween-80.
Setting [3] is: dose: 100.0 mg/kg/injection, schedule: Q01DX009 (ip), vehicle: Klucel (hydroxypropylcellulose) (HPC).
Setting [4] is: dose: 200.0 mg/kg/injection, schedule: Q01DX009 (ip), vehicle: Klucel (hydroxypropylcellulose) (HPC).
Where [5] appears, read: dose: 25.0 mg/kg/injection, schedule: Q01DX009 (ip), vehicle: Klucel (hydroxypropylcellulose) (HPC).
[6] abbreviates: dose: 50.0 mg/kg/injection, schedule: Q01DX009 (ip), vehicle: Klucel (hydroxypropylcellulose) (HPC).

The list is a part of this screen's results and no random one: it is rich in T/C values a quarter to a half above the control, in often repeated tests (any T/C) and in doses without a T/C. Other doses and runs of a compound stand elsewhere. T/C is the treated group as % of the vehicle group. Some doses have a count of surviving animals in place of a T/C: the source files T/C as zero there, which appears to mark a toxic dose or a test without result, not a measured value. Some survivor counts are full or nearly so, which does not show that the dose was tolerated: survival well below the control is almost never listed, so the zero probably covers shortened survival too. Counts of survivors are from the toxicity check (mostly the fifth day) where no day follows; animals may have died later. Schedule codes are those of the source, read here as Q, the interval in days (D) or hours (H), X, the number of doses. Some molecules as drawn cover several salts, stereoisomers or complexes of the source; a dose is that of the sample tested. Some entries hold several experiments; the values are given in rising order. Where survival is the endpoint, this PubChem deposit counts one and a half times the control or more as active, and values a quarter to a half above the control carry no call in these data; other NCI protocols may use other cut-offs. Some T/C values carry the count of animals alive at the toxicity check (mostly the fifth day); without a count, all were alive then.

As to `O=C1C(=O)c2cccnc2-c2ncccc21`, the survivor count is 10 of 10 (dose: 0.75 mg/kg/injection, schedule: Q01DX009 (ip), vehicle: Klucel (hydroxypropylcellulose) (HPC)); 8 of 10 (dose: 0.78 mg/kg/injection, schedule: Q01DX009 (ip), vehicle: Klucel (hydroxypropylcellulose) (HPC)); 10 of 10 (dose: 1.5 mg/kg/injection, schedule: Q01DX009 (ip), vehicle: Klucel (hydroxypropylcellulose) (HPC)); 1 of 10 and 4 of 10 (dose: 12.0 mg/kg/injection, schedule: Q01DX009 (ip), vehicle: Klucel (hydroxypropylcellulose) (HPC)); 0 of 10 (dose: 12.5 mg/kg/injection, schedule: Q01DX009 (ip), vehicle: Klucel (hydroxypropylcellulose) (HPC)). Also, where the note is “dose: 6.25 mg/kg/injection, schedule: Q01DX009 (ip), vehicle: Klucel (hydroxypropylcellulose) (HPC)”, the T/C was 134 % of control.
Consider `Cc1ccc(C(=O)NC2C(=O)NC(C(C)C)C(=O)N3CCCC3C(=O)N(C)CC(=O)N(C)C(C(C)C)C(=O)OC2C)c2c1Oc1c(c(C(=O)NC3C(=O)NC(C(C)C)C(=O)N4CCCC4C(=O)N(C)CC(=O)N(C)C(C(C)C)C(=O)OC3C)c3nc(-c4ccccc4)c(=O)oc3c1C)N2` (configuration not stated), for which the T/C was 125 % of control (dose: 0.12 mg/kg/injection, schedule: Q01DX009 (ip), vehicle: water) and 144 % of control (dose: 0.25 mg/kg/injection, schedule: Q01DX009 (ip), vehicle: water). Also, the survivor count reads like this: (dose: 1.0 mg/kg/injection, schedule: Q01DX009 (ip), vehicle: water) 10 of 10; (dose: 2.0 mg/kg/injection, schedule: Q01DX009 (ip), vehicle: water) 0 of 10.
For the compound `CCCCNC(C)C1(O)Cc2c(O)c3c(c(O)c2C(OC2CC(N)C(O)C(C)O2)C1)C(=O)c1c(OC)cccc1C3=O` (configuration not stated), the survivor count (dose: 160.0 mg/kg/injection, schedule: Q01DX009 (ip), vehicle: saline) was 10 of 10.
`CC(C)(C)OC(=O)NCC(=O)ON1C(=O)CCC1=O`: under setting [1], the survivor count was 10 of 10.
Take `[Cl][Pt+2][Cl].[NH-]c1ccc([N+](=O)[O-])cc1[NH-]`: the survivor count under setting [2] is 2 of 10.
Turning to `OCC1OC(n2cnc3c(SCc4ccccc4)ncnc32)C(O)C1O` (configuration not stated), the survivor count (dose: 300.0 mg/kg/injection, schedule: Q01DX009 (ip), vehicle: saline with Tween-80) is 8 of 10.
For `COC(C(=O)C(O)C(C)O)C1CC2C=C3C=C(OC4CC(OC5CC(O)C(OC)C(C)O5)C(OC(C)=O)C(C)O4)C(C)C(=O)C3=C(O)C2=C(O)C1OC1CC(OC2CC(OC3CC(C)(O)C(OC(=O)C(C)C)C(C)O3)C(O)C(C)O2)C(O)C(C)O1` (configuration not stated), for the setting “dose: 31.2 micrograms/kg/injection, schedule: Q01DX009 (ip), vehicle: saline”, the T/C was 139 % of control [8 of 10 alive]. Further, the survivor count was 10 of 10 (dose: 125.0 micrograms/kg/injection, schedule: Q01DX009 (ip), vehicle: saline) and 1 of 10 (dose: 250.0 micrograms/kg/injection, schedule: Q01DX009 (ip), vehicle: saline).
Consider `Cc1ccc(NCCN(C)C)c2c(=O)c3cc(O)ccc3sc12`, for which the survivor count under setting [3] is recorded as 0 of 10 and the survivor count under setting [4] is given as 0 of 10.
For the compound `O=C1CNC(=O)N1CN1CCOCC1`, the survivor count (dose: 800.0 mg/kg/injection, schedule: Q01DX009 (ip), vehicle: Klucel (hydroxypropylcellulose) (HPC)) is 7 of 10.
For the compound `O=C(CO)c1ccc([N+](=O)[O-])cc1`, the T/C (dose: 12.5 mg/kg/injection, schedule: Q01DX009 (ip), vehicle: saline with Tween-80) was 132 % of control.
Consider `CC(C)OC(=O)c1ccc(C(C)C)cc1`, for which the survivor count (dose: 25.0 mg/kg/injection, schedule: Q01DX009 (ip), vehicle: saline with Tween-80) is reported as 9 of 10.
As for `COC1CC(C)C(OC)C2=CC(=O)C=C(NC(=O)/C(C)=C/C=C\C(C)C(OC(N)=O)/C(C)=C\C(C)C1OC)C2=O` (configuration not stated), the T/C runs as follows: (dose: 2.5 mg/kg/injection, schedule: Q01DX009 (ip), vehicle: saline + alcohol) 128 % of control; (dose: 5.0 mg/kg/injection, schedule: Q01DX009 (ip), vehicle: saline + alcohol) 141 % of control. Further, the survivor count (dose: 10.0 mg/kg/injection, schedule: Q01DX009 (ip), vehicle: saline + alcohol) is 7 of 10; the survivor count (dose: 20.0 mg/kg/injection, schedule: Q01DX009 (ip), vehicle: saline + alcohol) is 0 of 10 and 6 of 10.
Regarding `CC[C@H](CC[C@@H](C)[C@H]1CC[C@H]2[C@@H]3CC=C4C[C@@H](OC(C)=O)CC[C@]4(C)[C@H]3CC[C@]12C)C(C)C`, the survivor count is 10 of 10 under setting [5], 10 of 10 under setting [6], 10 of 10 under setting [3] and 10 of 10 under setting [4].
As to `S=C(NCNC(=S)c1ccncc1)c1ccncc1`, under “dose: 800.0 mg/kg/injection, schedule: Q01DX009 (ip), vehicle: saline with Tween-80”, the survivor count was 4 of 10.
With `C[Si](C)(C)n1nnn(-c2ccccc2)c1=O`, the survivor count (dose: 400.0 mg/kg/injection, schedule: Q01DX009 (ip), vehicle: saline with Tween-80) is 0 of 10.
On to `CCCCCCCC(=O)O[C@H]1[C@H]2[C@@H](CC1(C)C)C(=O)[C@]13O[C@H]1C(=O)[C@]1(CO1)[C@]23C`, for which the survivor count runs as follows: (dose: 2.5 mg/kg/injection, schedule: Q01DX009 (ip), vehicle: saline with Tween-80) 10 of 10; (dose: 5.0 mg/kg/injection, schedule: Q01DX009 (ip), vehicle: saline with Tween-80) 10 of 10; (dose: 10.0 mg/kg/injection, schedule: Q01DX009 (ip), vehicle: saline with Tween-80) 10 of 10.
Take `CC1=C2C(=CO[C@H](C)[C@H]2C)C(=O)C(C(=O)O)=C1O`: the survivor count is, setting by setting: under setting [5], 6 of 10; under setting [6], 0 of 10.
`CN(C)CCOc1ccc2c(c1)C/C(=C/c1ncc([N+](=O)[O-])n1C)C2=O`: the survivor count reads like this: (dose: 100.0 mg/kg/injection, schedule: Q01DX009 (ip), vehicle: saline with Tween-80) 10 of 10; under setting [1], 10 of 10.
On to `O=C(O)CNC(=O)c1ccccc1`, for which the survivor count is 6 of 6 under setting [2]; 5 of 6 (dose: 320.0 mg/kg/injection, schedule: Q01DX009 (ip), vehicle: saline with Tween-80); 5 of 6 (dose: 640.0 mg/kg/injection, schedule: Q01DX009 (ip), vehicle: saline with Tween-80).
For the compound `O=C1c2ccccc2C(=O)c2c(NCCNCCO)ccc(NCCNCCO)c21`, the survivor count is 2 of 10 and 10 of 10 (dose: 32.0 mg/kg/injection, schedule: Q01DX009 (ip), vehicle: other); 10 of 10 (dose: 40.0 mg/kg/injection, schedule: Q01DX009 (ip), vehicle: water); 1 of 10 (dose: 64.0 mg/kg/injection, schedule: Q01DX009 (ip), vehicle: other); 10 of 10 (dose: 64.0 mg/kg/injection, schedule: Q01DX009 (ip), vehicle: saline); 6 of 10 and 10 of 10 (dose: 250.0 mg/kg/injection, schedule: Q01DX001 (ip), vehicle: saline); 2 of 10 and 10 of 10 (dose: 500.0 mg/kg/injection, schedule: Q01DX001 (ip), vehicle: saline). Further, where the note is “dose: 1000.0 mg/kg/injection, schedule: Q01DX001 (ip), vehicle: saline”, the survivor count was 0 of 10 and 10 of 10. For the same compound, the T/C runs as follows: (dose: 62.5 mg/kg/injection, schedule: Q01DX001 (ip), vehicle: saline) 147 % of control [9 of 10 alive]; (dose: 125.0 mg/kg/injection, schedule: Q01DX001 (ip), vehicle: saline) 138 and 145 % of control.
For `NC(=O)c1c[se]c(C2OC(CO)C(O)C2O)n1` (configuration not stated), the survivor count (dose: 200.0 mg/kg/injection, schedule: Q01DX009 (ip), vehicle: water) is listed as 10 of 10.
